Holding throughout (experiment): co-IP; endogenous proteins in HSC2 cell lysate (IP lysis buffer); pre-cleared, incubated with antibodies to 14-3-3ζ, NFκB, β-catenin or Bcl-2 (1:100) overnight at 4°C, protein A-Sepharose 4 hrs at 4°C, washed 4-5 times with lysis buffer; western blotting; negative control without primary antibody
The target of assay [1] is Bcl-2 (human (endogenous in HSC2)) (UniProt P10415).
Assay [2] has as its target p65 subunit of NFκB (human (endogenous in HSC2)) (UniProt Q04206).
Assay [3] deals with β-catenin (human (endogenous in HSC2)) (UniProt P35222).
The target in assay [4] is 14-3-3ζ protein (human (endogenous in HSC2)) (UniProt P63104).

By UniProt entry, the sequences of proteins in these tests, tags left out.
UniProt P10415: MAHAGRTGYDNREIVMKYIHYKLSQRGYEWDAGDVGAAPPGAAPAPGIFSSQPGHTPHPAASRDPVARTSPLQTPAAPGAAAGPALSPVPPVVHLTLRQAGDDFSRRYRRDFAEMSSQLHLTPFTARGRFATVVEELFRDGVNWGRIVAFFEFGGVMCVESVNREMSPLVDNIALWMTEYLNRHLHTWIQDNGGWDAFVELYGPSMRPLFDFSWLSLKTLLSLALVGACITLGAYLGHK
UniProt Q04206: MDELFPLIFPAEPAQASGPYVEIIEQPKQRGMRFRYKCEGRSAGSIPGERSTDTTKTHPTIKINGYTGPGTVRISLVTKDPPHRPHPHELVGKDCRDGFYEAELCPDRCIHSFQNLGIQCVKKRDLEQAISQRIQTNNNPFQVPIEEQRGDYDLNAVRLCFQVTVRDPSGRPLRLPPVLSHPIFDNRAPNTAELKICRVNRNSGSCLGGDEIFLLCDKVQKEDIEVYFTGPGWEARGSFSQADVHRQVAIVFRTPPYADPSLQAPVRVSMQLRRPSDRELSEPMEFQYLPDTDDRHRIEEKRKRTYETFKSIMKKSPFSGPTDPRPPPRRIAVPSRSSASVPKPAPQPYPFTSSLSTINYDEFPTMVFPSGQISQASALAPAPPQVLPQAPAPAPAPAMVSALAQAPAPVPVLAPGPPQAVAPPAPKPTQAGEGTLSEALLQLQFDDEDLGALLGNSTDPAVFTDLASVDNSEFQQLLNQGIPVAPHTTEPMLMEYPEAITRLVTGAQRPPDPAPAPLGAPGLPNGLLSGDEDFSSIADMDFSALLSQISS
UniProt P35222: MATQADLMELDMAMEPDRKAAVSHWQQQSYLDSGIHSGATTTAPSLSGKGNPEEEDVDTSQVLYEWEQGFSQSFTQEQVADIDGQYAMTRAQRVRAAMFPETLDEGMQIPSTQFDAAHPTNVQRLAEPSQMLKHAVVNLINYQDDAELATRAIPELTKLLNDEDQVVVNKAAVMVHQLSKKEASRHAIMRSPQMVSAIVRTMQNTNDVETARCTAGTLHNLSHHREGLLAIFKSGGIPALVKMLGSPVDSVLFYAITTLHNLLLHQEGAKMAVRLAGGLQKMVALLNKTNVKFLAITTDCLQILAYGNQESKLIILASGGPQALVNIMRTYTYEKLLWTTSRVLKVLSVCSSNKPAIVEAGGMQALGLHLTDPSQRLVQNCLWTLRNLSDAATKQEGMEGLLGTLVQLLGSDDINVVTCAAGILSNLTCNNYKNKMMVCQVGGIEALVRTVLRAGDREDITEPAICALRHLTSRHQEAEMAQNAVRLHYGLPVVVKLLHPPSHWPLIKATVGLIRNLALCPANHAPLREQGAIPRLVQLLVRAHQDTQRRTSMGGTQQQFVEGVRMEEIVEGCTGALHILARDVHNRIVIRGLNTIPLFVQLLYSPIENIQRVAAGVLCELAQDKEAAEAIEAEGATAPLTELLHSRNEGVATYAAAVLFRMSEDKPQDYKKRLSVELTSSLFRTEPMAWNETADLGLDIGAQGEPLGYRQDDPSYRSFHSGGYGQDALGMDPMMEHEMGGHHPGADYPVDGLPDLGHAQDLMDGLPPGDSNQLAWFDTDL
UniProt P63104: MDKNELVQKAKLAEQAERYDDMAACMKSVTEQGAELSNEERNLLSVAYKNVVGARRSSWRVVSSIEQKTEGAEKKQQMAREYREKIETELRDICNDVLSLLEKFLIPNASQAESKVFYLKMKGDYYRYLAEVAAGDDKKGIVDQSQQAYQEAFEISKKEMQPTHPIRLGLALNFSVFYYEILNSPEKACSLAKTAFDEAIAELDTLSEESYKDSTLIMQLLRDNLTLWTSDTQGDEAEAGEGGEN

No constants are given. Whether binding was seen depends on the method and setting. Binding seen in cells or lysates may run through a third protein. Some binding calls cover weakened binding; strength is not graded here.

“14-3-3ζ protein (from UniProt P63104 1-245)”: the binding entry in assay [1], in assay [2] and in assay [3] was “binds” each time.
In the case of Bcl-2 (from UniProt P10415 1-239), in assay [4], the binding result is “binds”.
The same measure, in the same setting: the same measure for “p65 subunit of NFκB (from UniProt Q04206 1-551)”: “binds”; for β-catenin (from UniProt P35222 1-781): “binds”.

For the origin of these results see paper PMC2082039.
